Results taken from publication doi:10.1101/2022.09.15.508097.
Results are given in words; binding and its absence hold for the method and conditions named. Some results given as binding are weak or reduced against the parent protein; the word gives no strength. For some of these results: Where a sequence is shown, tags or fusion partners need not be part of it.

Protein sequences, listed by entry. Tags and fused reporters are not part of them. Lines headed by an entry give the natural chain unless they say otherwise; changes in a name come on top. Residues count along the entry.
UniProt Q9C0D4: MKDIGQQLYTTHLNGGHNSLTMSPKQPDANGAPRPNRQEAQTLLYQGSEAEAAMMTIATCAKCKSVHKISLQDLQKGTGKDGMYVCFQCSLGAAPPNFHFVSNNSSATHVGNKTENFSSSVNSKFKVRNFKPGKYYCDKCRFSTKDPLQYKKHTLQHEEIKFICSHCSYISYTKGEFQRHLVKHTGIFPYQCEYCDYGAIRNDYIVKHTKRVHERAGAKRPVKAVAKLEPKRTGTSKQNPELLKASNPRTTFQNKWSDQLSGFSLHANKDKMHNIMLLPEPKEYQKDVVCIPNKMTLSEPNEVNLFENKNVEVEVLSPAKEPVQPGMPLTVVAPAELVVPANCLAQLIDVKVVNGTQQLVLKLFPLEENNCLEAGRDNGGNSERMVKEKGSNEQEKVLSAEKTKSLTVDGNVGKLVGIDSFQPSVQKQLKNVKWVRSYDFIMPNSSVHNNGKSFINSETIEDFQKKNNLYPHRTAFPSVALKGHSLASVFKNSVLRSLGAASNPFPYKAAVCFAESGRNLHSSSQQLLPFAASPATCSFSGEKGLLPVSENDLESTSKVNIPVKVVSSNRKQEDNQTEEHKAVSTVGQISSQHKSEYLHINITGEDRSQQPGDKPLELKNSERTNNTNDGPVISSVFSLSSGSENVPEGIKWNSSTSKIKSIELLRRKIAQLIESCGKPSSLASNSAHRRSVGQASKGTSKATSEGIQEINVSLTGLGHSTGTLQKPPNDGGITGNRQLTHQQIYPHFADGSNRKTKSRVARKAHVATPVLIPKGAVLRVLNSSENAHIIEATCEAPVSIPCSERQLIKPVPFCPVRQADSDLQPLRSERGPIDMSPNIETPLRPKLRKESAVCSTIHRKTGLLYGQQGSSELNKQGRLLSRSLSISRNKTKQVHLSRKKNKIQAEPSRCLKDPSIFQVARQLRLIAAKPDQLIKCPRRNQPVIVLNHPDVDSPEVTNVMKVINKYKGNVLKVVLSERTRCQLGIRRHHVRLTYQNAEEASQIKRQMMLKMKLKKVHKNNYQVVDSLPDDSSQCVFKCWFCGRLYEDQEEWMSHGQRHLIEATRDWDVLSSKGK
TetR-EYFP-ZNF518B^344–1074: residues 344-1074 of Q9C0D4
TetR-EYFP-ZNF518B^555–1074: residues 555-1074 of Q9C0D4
UniProt Q96KQ7: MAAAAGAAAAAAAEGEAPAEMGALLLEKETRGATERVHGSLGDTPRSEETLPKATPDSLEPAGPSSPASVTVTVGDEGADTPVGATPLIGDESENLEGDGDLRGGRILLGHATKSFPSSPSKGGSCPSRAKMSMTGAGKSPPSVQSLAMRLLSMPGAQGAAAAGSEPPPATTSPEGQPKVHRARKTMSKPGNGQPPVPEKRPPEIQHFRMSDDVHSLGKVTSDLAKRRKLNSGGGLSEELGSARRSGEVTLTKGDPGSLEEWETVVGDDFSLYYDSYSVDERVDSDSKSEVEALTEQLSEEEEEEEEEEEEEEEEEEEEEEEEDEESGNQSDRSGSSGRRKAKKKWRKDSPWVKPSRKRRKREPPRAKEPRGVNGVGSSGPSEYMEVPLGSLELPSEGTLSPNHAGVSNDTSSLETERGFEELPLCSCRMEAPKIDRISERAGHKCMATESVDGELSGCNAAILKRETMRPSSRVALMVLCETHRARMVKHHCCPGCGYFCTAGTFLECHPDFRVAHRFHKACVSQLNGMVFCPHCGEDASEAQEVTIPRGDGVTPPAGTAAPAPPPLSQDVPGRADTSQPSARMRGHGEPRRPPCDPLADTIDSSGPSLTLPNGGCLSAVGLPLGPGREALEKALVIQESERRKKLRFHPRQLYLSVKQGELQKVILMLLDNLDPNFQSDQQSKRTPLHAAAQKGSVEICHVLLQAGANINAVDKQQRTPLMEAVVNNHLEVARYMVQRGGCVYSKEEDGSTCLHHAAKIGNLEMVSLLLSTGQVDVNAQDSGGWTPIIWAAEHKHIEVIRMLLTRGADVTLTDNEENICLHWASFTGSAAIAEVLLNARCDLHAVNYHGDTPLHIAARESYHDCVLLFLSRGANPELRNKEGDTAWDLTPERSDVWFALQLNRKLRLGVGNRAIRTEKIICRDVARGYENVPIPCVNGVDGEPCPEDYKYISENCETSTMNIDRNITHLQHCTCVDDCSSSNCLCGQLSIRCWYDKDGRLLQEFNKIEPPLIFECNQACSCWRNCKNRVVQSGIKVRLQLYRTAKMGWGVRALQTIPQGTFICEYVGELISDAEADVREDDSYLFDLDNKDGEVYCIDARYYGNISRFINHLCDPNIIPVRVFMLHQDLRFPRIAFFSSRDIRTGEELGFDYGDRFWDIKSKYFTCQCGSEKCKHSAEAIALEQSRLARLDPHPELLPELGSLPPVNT

How the values were obtained:
Assay in all cases: fluorescence microscopy-based interaction-trap
[1] = biological target: TetR-EYFP-ZNF518B^WT (human) (UniProt Q9C0D4)
[2] = biological target: TetR-EYFP-ZNF518A^971–1321 (human) (UniProt Q6AHZ1)
[3] = biological target: TetR-EYFP-ZNF518B^344–1074 (human) (UniProt Q9C0D4)
[4] = biological target: T1, TetR-EYFP-ZNF518A^WT (human) (UniProt Q6AHZ1)
T1 sequence: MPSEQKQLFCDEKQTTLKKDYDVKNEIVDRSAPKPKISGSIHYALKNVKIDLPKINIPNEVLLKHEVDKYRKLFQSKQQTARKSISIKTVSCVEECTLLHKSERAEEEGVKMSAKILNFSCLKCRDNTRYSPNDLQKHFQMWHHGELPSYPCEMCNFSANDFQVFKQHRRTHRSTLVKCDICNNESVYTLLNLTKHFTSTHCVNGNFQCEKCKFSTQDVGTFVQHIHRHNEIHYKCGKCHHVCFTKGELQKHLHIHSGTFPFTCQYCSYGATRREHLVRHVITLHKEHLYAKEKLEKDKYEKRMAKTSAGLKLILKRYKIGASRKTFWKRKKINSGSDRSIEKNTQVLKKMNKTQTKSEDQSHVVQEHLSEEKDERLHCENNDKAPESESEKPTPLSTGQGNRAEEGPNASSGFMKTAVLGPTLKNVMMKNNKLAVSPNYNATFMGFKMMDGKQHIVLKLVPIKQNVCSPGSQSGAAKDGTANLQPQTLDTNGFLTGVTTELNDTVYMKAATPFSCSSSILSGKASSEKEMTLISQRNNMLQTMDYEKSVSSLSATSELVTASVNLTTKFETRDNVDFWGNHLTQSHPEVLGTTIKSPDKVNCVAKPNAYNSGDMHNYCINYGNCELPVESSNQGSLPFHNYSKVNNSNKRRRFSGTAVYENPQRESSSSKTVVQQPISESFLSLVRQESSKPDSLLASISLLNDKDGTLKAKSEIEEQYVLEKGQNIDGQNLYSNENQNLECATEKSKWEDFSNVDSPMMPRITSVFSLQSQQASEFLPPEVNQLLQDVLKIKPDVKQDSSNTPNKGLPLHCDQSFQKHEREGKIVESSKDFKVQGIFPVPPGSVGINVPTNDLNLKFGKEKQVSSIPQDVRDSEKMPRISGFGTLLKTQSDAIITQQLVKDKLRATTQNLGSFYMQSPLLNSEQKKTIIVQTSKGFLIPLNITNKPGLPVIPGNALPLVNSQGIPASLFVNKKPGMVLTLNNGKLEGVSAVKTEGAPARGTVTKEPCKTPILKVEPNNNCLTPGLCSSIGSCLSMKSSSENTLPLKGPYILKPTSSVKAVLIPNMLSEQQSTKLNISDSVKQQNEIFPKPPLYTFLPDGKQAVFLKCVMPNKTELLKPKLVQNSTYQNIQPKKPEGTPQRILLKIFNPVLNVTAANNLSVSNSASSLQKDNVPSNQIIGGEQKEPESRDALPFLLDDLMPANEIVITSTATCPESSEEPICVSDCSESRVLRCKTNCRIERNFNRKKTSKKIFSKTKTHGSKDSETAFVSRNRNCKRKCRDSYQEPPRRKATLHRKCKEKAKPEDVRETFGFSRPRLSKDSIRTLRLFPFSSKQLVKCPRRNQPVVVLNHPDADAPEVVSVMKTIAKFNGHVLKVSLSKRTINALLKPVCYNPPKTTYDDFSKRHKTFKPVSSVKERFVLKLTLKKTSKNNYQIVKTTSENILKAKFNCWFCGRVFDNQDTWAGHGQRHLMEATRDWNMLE

[5] = biological target: TetR-EYFP-ZNF518A^1317–1483 (human) (UniProt Q6AHZ1)
[6] = biological target: TetR-EYFP-ZNF518B^555–1074 (human) (UniProt Q9C0D4)
[7] = biological target: TetR-EYFP-ZNF518A^971–1483 (human) (UniProt Q6AHZ1)

Measured: binding

Halo-G9a (from UniProt Q96KQ7 1-1210) (enzyme)
binds: all assays above
